Reference: the supplement of paper PMC10331698
± gives the standard deviation of the averaged measurements. Most values lie at the level of the controls, where differences are scatter.

What was measured:
Assay in all cases: level (log10 ratio to DMSO vehicle control); higher = higher biomarker level / cell amount than vehicle control
Perfluoropentanoic acid = compound: O=C(O)C(F)(F)C(F)(F)C(F)(F)C(F)(F)F [Perfluoropentanoic acid]; details: in DMSO
Protocol: (§1)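 BioMAP Diversity Plus panel of 12 human primary cell co-culture systems (3C, 4H, LPS, SAg, BT, BF4T, BE3C, CASM3C, HDF3CGF, KF3CT, MyoF, Mphg). Compounds were added 1 h before stimulation and left for 24 h (MyoF 48 h; BT 72 h for soluble read-outs or 6 d for IgG). Biomarkers were read by ELISA, cytotoxicity by SRB, PBMC viability and proliferation by Alamar Blue. Each well value was divided by the mean of 8 DMSO control wells on the same plate and log10 transformed; duplicate blinded samples were tested at 4 concentrations.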

Heptafluorobutyramide = compound: NC(=O)C(F)(F)C(F)(F)C(F)(F)F [Heptafluorobutyramide]; details: 2200 nM; in DMSO
Protocol: as §1

1-(Perfluorohexyl)octane = compound: CCCCCCCCC(F)(F)C(F)(F)C(F)(F)C(F)(F)C(F)(F)C(F)(F)F [1-(Perfluorohexyl)octane]; details: in DMSO
Protocol: as §1

[1] = compound: CCN(CCO)S(=O)(=O)C(F)(F)C(F)(F)C(F)(F)C(F)(F)C(F)(F)C(F)(F)C(F)(F)C(F)(F)F [N-Ethyl-N-(2-hydroxyethyl)perfluorooctanesulfonamide]; details: in DMSO
Protocol: as §1

[2] = compound: OCCC(F)(F)C(F)(F)C(F)(F)C(F)(F)C(F)(F)C(F)(F)F [6:2 Fluorotelomer alcohol]; details: 2200 nM; in DMSO
Protocol: as §1

[3] = compound: O=S(=O)(O)CCC(F)(F)C(F)(F)C(F)(F)C(F)(F)C(F)(F)C(F)(F)C(F)(F)C(F)(F)F [8:2 Fluorotelomer sulfonic acid]; details: in DMSO
Protocol: as §1

[4] = compound: FC(F)(F)C(F)(F)C(F)(F)C(F)(F)C(F)(F)C(F)(F)CC1CO1 [3-(Perfluorohexyl)-1,2-epoxypropane]; details: 2200 nM; in DMSO
Protocol: as §1

Perfluoroheptanoic acid = compound: O=C(O)C(F)(F)C(F)(F)C(F)(F)C(F)(F)C(F)(F)C(F)(F)F [Perfluoroheptanoic acid]; details: in DMSO
Protocol: as §1

[5] = compound: NCC(F)(F)C(F)(F)C(F)(F)C(F)(F)C(F)(F)C(F)(F)C(F)(F)F [1H,1H-Perfluorooctylamine]; details: 2200 nM; in DMSO
Protocol: as §1

[6] = compound: CC(C)(C)C(=O)CC(=O)C(F)(F)C(F)(F)C(F)(F)F [(Heptafluorobutanoyl)pivaloylmethane]; details: 2200 nM; in DMSO
Protocol: as §1

Octafluoroadipic acid = compound: O=C(O)C(F)(F)C(F)(F)C(F)(F)C(F)(F)C(=O)O [Octafluoroadipic acid]; details: 2200 nM; in DMSO
Protocol: as §1

[7] = compound: CN(C(=O)C(F)(F)C(F)(F)C(F)(F)F)[Si](C)(C)C [N-Methyl-N-trimethylsilylheptafluorobutyramide]; details: 2200 nM; in DMSO
Protocol: as §1

[8] = compound: O=C(O)C(F)(F)C(F)(F)C(F)(F)OC(F)(F)F [Perfluoro(4-methoxybutanoic) acid]; details: 2200 nM; in DMSO
Protocol: as §1

1H,1H-Heptafluorobutanol = compound: OCC(F)(F)C(F)(F)C(F)(F)F [1H,1H-Heptafluorobutanol]; details: 2200 nM; in DMSO
Protocol: as §1

[9] = compound: Cc1ccc(S(=O)(=O)OCC(F)(F)C(F)(F)C(F)(F)C(F)(F)C(F)(F)C(F)F)cc1 [1H,1H,7H-Perfluoroheptyl 4-methylbenzenesulfonate]; details: 2200 nM; in DMSO
Protocol: as §1

[10] = compound: O=C(O)C(F)(F)C(F)(F)C(F)(F)C(F)(F)C(F)(F)C(F)(F)C(F)(F)C(F)(F)C(F)(F)C(F)F [11-H-Perfluoroundecanoic acid]; details: 2200 nM; in DMSO
Protocol: as §1

Test System	level (log10) (Perfluoropentanoic acid; 2200 nM)	level (log10) (Perfluoropentanoic acid; 6700 nM)	level (log10) (Perfluoropentanoic acid; 20000 nM)	level (log10) (Perfluoropentanoic acid; 60000 nM)	level (log10) (Heptafluorobutyramide)	level (log10) (1-(Perfluorohexyl)octane; 740 nM)	level (log10) (1-(Perfluorohexyl)octane; 2200 nM)	level (log10) ([1]; 2200 nM)	level (log10) ([1]; 6700 nM)	level (log10) ([1]; 20000 nM)	level (log10) [2]	level (log10) ([3]; 2200 nM)	level (log10) ([3]; 6700 nM)	level (log10) ([3]; 20000 nM)	level (log10) ([3]; 60000 nM)	level (log10) [4]	level (log10) (Perfluoroheptanoic acid; 2200 nM)	level (log10) (Perfluoroheptanoic acid; 6700 nM)	level (log10) (Perfluoroheptanoic acid; 20000 nM)	level (log10) (Perfluoroheptanoic acid; 60000 nM)	level (log10) [5]	level (log10) [6]	level (log10) (Octafluoroadipic acid)	level (log10) [7]	level (log10) [8]	level (log10) (1H,1H-Heptafluorobutanol)	level (log10) [9]	level (log10) [10]
LPS:CD62E/E-Selectin	0.0015 ± 0.011	0.01 ± 0.0057	-0.004 ± 0.0071	0.015 ± 0.018	-0.0075 ± 0.023	-0.018 ± 0.073	0.0005 ± 0.042	0.019 ± 0.025	0.071 ± 0.02	0.073 ± 0.0042	0.009 ± 0.037	0.0295 ± 0.06	0.0235 ± 0.06	0.033 ± 0.02	0.082 ± 0.025	-0.0025 ± 0.029	0.0105 ± 0.019	-0.009 ± 0.0028	0 ± 0.017	0.01	0.0105 ± 0.05	0.0195 ± 0.005	0.0035 ± 0.0021	0.0295 ± 0.028	-0.01 ± 0.033	0.0005 ± 0.0092	0.0285 ± 0.035	0.0105 ± 0.023
LPS:CD69	0.0305 ± 0.03	0.007 ± 0.011	-0.0305 ± 0.013	-0.0135 ± 0.083	0.022 ± 0.064	0.011 ± 0.088	-0.003 ± 0.042	-0.006 ± 0.0014	-0.134 ± 0.0028	-0.226 ± 0.0042	-0.007 ± 0.047	-0.0035 ± 0.037	-0.0455 ± 0.06	-0.035 ± 0.071	-0.0835 ± 0.049	-0.049 ± 0.061	-0.015 ± 0.017	-0.0095 ± 0.0035	-0.025	-0.057 ± 0.013	-0.017 ± 0.057	-0.0145 ± 0.00071	0.0365 ± 0.06	-0.008 ± 0.011	0.039 ± 0.1	-0.026 ± 0.023	-0.0065 ± 0.088	-0.007 ± 0.018
LPS:CD106/VCAM-1	-0.0005 ± 0.019	0.005 ± 0.013	0.004 ± 0.0057	0.0035 ± 0.023	0.006 ± 0.0042	0.005 ± 0.023	-0.005 ± 0.028	0.009 ± 0.031	-0.0195 ± 0.023	-0.0395 ± 0.012	-0.0045 ± 0.0092	0.001 ± 0.067	-0.0135 ± 0.073	-0.021 ± 0.065	-0.0535 ± 0.077	-0.011 ± 0.0042	-0.002 ± 0.013	-0.014 ± 0.021	-0.0155 ± 0.025	-0.013 ± 0.025	-0.005 ± 0.02	-0.02 ± 0.033	-0.0115 ± 0.049	-0.002 ± 0.0028	-0.0065 ± 0.026	-0.02 ± 0.0042	0.004 ± 0.0042	0.029 ± 0.0085
LPS:CD141/Thrombomodulin	-0.004 ± 0.025	-0.0115 ± 0.047	-0.045 ± 0.073	-0.0085 ± 0.11	-0.0465 ± 0.063	0.008 ± 0.027	-0.008 ± 0.0042	0.101 ± 0.018	0.117 ± 0.0042	0.201	-0.016 ± 0.0057	-0.0015 ± 0.1	0.007 ± 0.11	0.0505 ± 0.071	0.205 ± 0.016	-0.019 ± 0.02	-0.009	-0.0115 ± 0.03	0.002 ± 0.011	-0.035 ± 0.0099	-0.0095 ± 0.005	-0.016 ± 0.0057	-0.022 ± 0.013	0.0125 ± 0.025	-0.0235 ± 0.015	0.004 ± 0.017	0.003 ± 0.02	0.0505 ± 0.052
LPS:CD142/Tissue Factor	-0.012 ± 0.0099	0.006 ± 0.0099	-0.007 ± 0.051	0.031 ± 0.099	0.0035 ± 0.022	-0.0035 ± 0.097	-0.01 ± 0.1	0.0775 ± 0.013	0.139 ± 0.038	0.312 ± 0.037	0.0095 ± 0.013	-0.0005 ± 0.022	0.0005 ± 0.067	0.024 ± 0.088	-0.0025 ± 0.011	-0.019 ± 0.0028	-0.0085 ± 0.022	-0.0025 ± 0.005	-0.007 ± 0.013	0.0245 ± 0.005	0.017 ± 0.067	0.008 ± 0.016	0.006 ± 0.052	0.0105 ± 0.056	-0.0125 ± 0.026	-0.003 ± 0.011	-0.041 ± 0.11	0.0245 ± 0.033
LPS:CXCL8/IL-8	0.016 ± 0.045	-0.0075 ± 0.00071	-0.0095 ± 0.022	0.0245 ± 0.052	0.014 ± 0.072	0.019 ± 0.047	0.0115 ± 0.025	0.069 ± 0.0071	0.039 ± 0.0042	-0.003 ± 0.0028	0.039 ± 0.045	0.048 ± 0.041	0.01 ± 0.11	0.0485 ± 0.012	-0.053 ± 0.17	-0.011 ± 0.0085	0.0295 ± 0.0021	0.0085 ± 0.033	0.027 ± 0.03	0.105 ± 0.059	-0.028 ± 0.028	-0.008 ± 0.0042	0.012 ± 0.014	0.0055 ± 0.0064	0.0155 ± 0.083	0.016	0.022 ± 0.031	-0.0185 ± 0.011
LPS:IL-1alpha	0 ± 0.023	-0.0005 ± 0.00071	-0.0115 ± 0.012	-0.021 ± 0.017	-0.018 ± 0.023	0.006 ± 0.0028	-0.008 ± 0.013	0.0155 ± 0.019	-0.098 ± 0.013	-0.141 ± 0.026	0.006 ± 0.072	-0.024 ± 0.037	-0.0195 ± 0.03	-0.016 ± 0.037	-0.283 ± 0.19	0.0055 ± 0.028	0.019 ± 0.035	-0.002 ± 0.0057	-0.0265 ± 0.0078	0.006 ± 0.047	-0.002 ± 0.011	-0.0365 ± 0.029	-0.0005 ± 0.06	-0.0045 ± 0.018	-0.018 ± 0.035	-0.029 ± 0.033	0.0115 ± 0.021	0.0085 ± 0.054
LPS:M-CSF	-0.0085 ± 0.00071	-0.031 ± 0.024	-0.061 ± 0.11	-0.0385 ± 0.11	0.006 ± 0.016	0.0035 ± 0.094	-0.014 ± 0.054	0.0115 ± 0.033	0.0495 ± 0.033	0.104 ± 0.041	0.004 ± 0.014	0.037 ± 0.025	-0.016 ± 0.041	0.0075 ± 0.054	-0.0795 ± 0.088	0.0085 ± 0.0064	-0.016 ± 0.044	-0.028 ± 0.024	-0.008 ± 0.018	-0.007 ± 0.038	0.0025 ± 0.044	-0.002 ± 0.0014	0.0055 ± 0.025	0.0025 ± 0.015	0.0075 ± 0.0035	0.0415 ± 0.019	0.017 ± 0.061	0.0215 ± 0.019
LPS:SRB	-0.002 ± 0.0042	0.0015 ± 0.0078	0.004	0.003 ± 0.0085	-0.0025 ± 0.00071	0.015 ± 0.0099	-0.0015 ± 0.016	-0.013 ± 0.0085	-0.0345 ± 0.0035	-0.084 ± 0.02	-0.0015 ± 0.012	0.002 ± 0.011	-0.0085 ± 0.005	-0.0095 ± 0.019	-0.02 ± 0.018	0.005 ± 0.0014	-0.008 ± 0.0057	-0.019 ± 0.0085	0.001 ± 0.0028	-0.019 ± 0.0099	0.0025 ± 0.0078	-0.001 ± 0.0085	-0.0035 ± 0.011	0.007 ± 0.018	-0.0045 ± 0.005	-0.0085 ± 0.0078	0.004 ± 0.017	0.008 ± 0.016
